Laboratory results reported in the supplement of paper PMC7125110.
± gives the standard error. Many entries were measured with a wide error.

B1: glmS ribozyme (parent)
chain: AUAAAAGCGCCAGAACUACAGAAAUGUAGUUGACGAGGAGGAGGUUUAUCGAAUUUUCGGCGGAUGCCUCCAAA

Variants of: B1
Assay: kcat; higher = faster cleavage; RNA array
Settings: with glucosamine-6-phosphate
Summary of the method: (§1)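 kcat and KM were obtained from weighted Michaelis–Menten fits across concentrations of kobs values. Those came from one- or two-exponential decay fits to per-tile medians normalised to baseline and to non-cleaving reference variants. The variants were barcoded ribozymes transcribed in situ by E. coli RNA polymerase on sequenced MiSeq chips and tracked through a hybridised Cy3 probe at 37 °C, with 40 μM to 10 mM glucosamine-6-phosphate in HEPES/KCl/Mg(OAc)2 buffer flowed in.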
For A15G C67U, the kcat was 0.00805 ± 0.0041 s⁻¹. A15G C71G gave a kcat of 0.0013 ± 0.00065 s⁻¹. Variant A15G G40U C70A has a kcat of 0.000787 ± 0.00041 s⁻¹. For A15G U31C, the kcat was 0.0189 ± 0.012 s⁻¹. For A15G U49G, the kcat was 0.00183 ± 0.00093 s⁻¹. A15U C58U U69A gave a kcat of 7.83e-05 ± 4.1e-05 s⁻¹. In the case of A15U C68U, the kcat is reported as 0.000466 ± 3e-05 s⁻¹. A15U U56G showed a kcat of 0.00786 ± 0.0027 s⁻¹. For C16A G29U, the kcat was 0.0305 ± 0.016 s⁻¹. In the case of C16A G66C, the kcat is reported as 6.9e-05 ± 1.7e-05 s⁻¹. C16A U49C G59U U69A showed a kcat of under 1e-05 s⁻¹. Variant C16G C50A C70A has a kcat of 4.39e-05 ± 2.5e-05 s⁻¹. C16G G29C gave a kcat of 0.0089 ± 0.0065 s⁻¹. With C16G G29U the kcat was 0.0203 ± 0.018 s⁻¹. C16G U30A was tested, and the kcat was 0.000474 ± 6e-05 s⁻¹. C16G U30G C50G gave a kcat of 9.89e-05 ± 5.4e-05 s⁻¹. For C16G U31C, the kcat was 0.000606 ± 0.00011 s⁻¹. Work on C16G U45C yielded a kcat of 0.0003 ± 7.1e-05 s⁻¹. Work on C16G U54G yielded a kcat of 0.00297 ± 0.00074 s⁻¹. Work on C16U A53C yielded a kcat of 0.00916 ± 0.0052 s⁻¹. C16U A53U was tested, and the kcat was 0.0128 ± 0.011 s⁻¹. In the case of C16U G29C, the kcat is reported as 0.00862 ± 0.0062 s⁻¹. C16U G40A was tested, and the kcat was 0.00615 ± 0.0033 s⁻¹. Variant C16U G43U has a kcat of 4.2e-05 ± 1.9e-07 s⁻¹. Variant C16U U30A has a kcat of 0.003 ± 0.00083 s⁻¹. C16U U47G gave a kcat of 0.0015 ± 0.00083 s⁻¹. For C16U U54A, the kcat was 0.00549 ± 0.0031 s⁻¹. Variant C19A C50G has a kcat of 5.8e-05 ± 4.1e-05 s⁻¹. For G21U U31A, the kcat was 0.0242 ± 0.014 s⁻¹. Variant G21U U45C C68U has a kcat of 0.000502 ± 0.00032 s⁻¹. With G29A A33U the kcat was 0.000174 ± 0.00013 s⁻¹. G29A C50G showed a kcat of 3.63e-05 ± 2.4e-05 s⁻¹. For G29A C71U, the kcat was 0.00647 ± 0.0063 s⁻¹. In the case of G29A G37U, the kcat is reported as under 1e-05 s⁻¹. Work on G29A U54C yielded a kcat of 0.00174 ± 0.0011 s⁻¹. G29A U69G gave a kcat of 2.3e-05 ± 1.2e-05 s⁻¹. G29C A53G C68A showed a kcat of 6.29e-05 ± 4.1e-05 s⁻¹. For G29C C50G, the kcat was 5.29e-05 ± 3.5e-05 s⁻¹. G29C G32C showed a kcat of 0.000391 ± 0.0002 s⁻¹. G29C U30G was tested, and the kcat was 0.00361 ± 0.0014 s⁻¹. Work on G29C U31C C70A yielded a kcat of 5.35e-05 ± 4.1e-05 s⁻¹. G29C U45A was tested, and the kcat was 0.000965 ± 0.0006 s⁻¹. G29U A53C gave a kcat of 0.0016 ± 0.0014 s⁻¹. In the case of G29U G32A, the kcat is reported as 0.00151 ± 0.00013 s⁻¹. For G29U G40A U45A, the kcat was 0.000632 ± 0.00034 s⁻¹. Work on G29U U56A yielded a kcat of 0.00639 ± 0.0048 s⁻¹. In the case of U30A A36U C70G, the kcat is reported as 5.43e-05 ± 2.9e-05 s⁻¹. In the case of U30A A42G, the kcat is reported as 0.00329 ± 0.0022 s⁻¹. For U30A A64U, the kcat was 1.3e-05 ± 1e-05 s⁻¹. In the case of U30A C71G, the kcat is reported as 0.000488 ± 0.00044 s⁻¹. In the case of U30A G32C, the kcat is reported as 0.00103 ± 0.00059 s⁻¹. For U30A U47G, the kcat was 0.000918 ± 0.00028 s⁻¹. For U30A U65G, the kcat was 0.00214 ± 0.00022 s⁻¹. U30C A64G showed a kcat of 0.000351 ± 3.3e-05 s⁻¹. Work on U30C C50A U65A U69G yielded a kcat of 4.97e-05 ± 2.9e-05 s⁻¹. Work on U30C C58G yielded a kcat of 2e-05 ± 1.6e-06 s⁻¹. U30C C58G C68A gave a kcat of 5.09e-05 ± 2.1e-05 s⁻¹. Work on U30C G51A yielded a kcat of 1.44e-05 ± 8.5e-06 s⁻¹. For U30G A52U, the kcat was 6.83e-05 ± 9.4e-06 s⁻¹. With U30G A53G the kcat was 0.0121 ± 0.0069 s⁻¹. U30G C70U gave a kcat of 0.00176 ± 0.00098 s⁻¹. U30G C71G gave a kcat of 0.000621 ± 0.00036 s⁻¹.

Variants of: B1
Assay: KM; higher = weaker cofactor use; RNA array
Settings: with glucosamine-6-phosphate
Summary of the method: as §1
A15G C67U showed a KM of 1710 ± 1200 µM. A15G C71G was tested, and the KM was 515 ± 360 µM. Work on A15G G40U C70A yielded a KM of 1990 ± 1600 µM. A15G U31C gave a KM of 5670 ± 4100 µM. For A15G U49G, the KM was 4540 ± 3400 µM. For A15U C68U, the KM was 1610 ± 210 µM. For A15U U56G, the KM was 3290 ± 1500 µM. With C16A G29U the KM was 2180 ± 1500 µM. C16A G66C showed a KM of 18700 ± 7000 µM. C16G G29C gave a KM of 568 ± 540 µM. In the case of C16G U30A, the KM is reported as 1780 ± 370 µM. Work on C16G U31C yielded a KM of 3720 ± 980 µM. In the case of C16G U45C, the KM is reported as 1810 ± 1100 µM. Variant C16G U54G has a KM of 1080 ± 460 µM. Work on C16U A53C yielded a KM of 3560 ± 2600 µM. C16U G29C was tested, and the KM was 1670 ± 1600 µM. With C16U G40A the KM was 1880 ± 1300 µM. In the case of C16U G43U, the KM is reported as 1250 ± 27 µM. C16U U30A gave a KM of 2310 ± 910 µM. C16U U54A showed a KM of 234 ± 210 µM. In the case of G21U U31A, the KM is reported as 2580 ± 1800 µM. G29A A33U showed a KM of 47800 ± 44000 µM. G29A U54C was tested, and the KM was 692 ± 590 µM. G29C G32C showed a KM of 31100 ± 20000 µM. G29C U30G gave a KM of 1710 ± 940 µM. In the case of G29U G32A, the KM is reported as 2210 ± 350 µM. G29U G40A U45A gave a KM of 2530 ± 2300 µM. With G29U U56A the KM was 12800 ± 12000 µM. In the case of U30A G32C, the KM is reported as 40400 ± 28000 µM. For U30A U47G, the KM was 635 ± 430 µM. Work on U30A U65G yielded a KM of 5250 ± 1000 µM. For U30C A64G, the KM was 1100 ± 200 µM. U30C C58G was tested, and the KM was 184 ± 120 µM. Work on U30G A52U yielded a KM of 2050 ± 1100 µM. U30G A53G showed a KM of 2780 ± 2200 µM. Variant U30G C70U has a KM of 264 ± 250 µM. Variant U30G C71G has a KM of 4220 ± 3900 µM.

Variants of: B1
Assay: self-cleavage kobs at 640 uM GlcN6P; higher = faster cleavage; RNA array
Settings: with glucosamine-6-phosphate
Summary of the method: as §1
For C16G C50A C70A, the “self-cleavage kobs at 640 uM GlcN6P” value was 4.24e-05 ± 2.7e-05 s⁻¹. For G29A U69G, the “self-cleavage kobs at 640 uM GlcN6P” value was 3.99e-05 ± 2.9e-05 s⁻¹.

Variants of: B1
Assay: self-cleavage kobs at 160 uM GlcN6P; higher = faster cleavage; RNA array
Settings: with glucosamine-6-phosphate
Summary of the method: as §1
With C16G U31C the “self-cleavage kobs at 160 uM GlcN6P” value was 1.73e-05 ± 1.2e-05 s⁻¹. For G29A U69G, the “self-cleavage kobs at 160 uM GlcN6P” value was 5.03e-05 ± 3.4e-05 s⁻¹. For G29C A53G C68A, the “self-cleavage kobs at 160 uM GlcN6P” value was 0.000662 ± 0.00034 s⁻¹. With G29U G40A U45A the “self-cleavage kobs at 160 uM GlcN6P” value was 2.15e-05 ± 2e-05 s⁻¹.

Variants of: B1
Assay: self-cleavage kobs at 40 uM GlcN6P; higher = faster cleavage; RNA array
Settings: with glucosamine-6-phosphate
Summary of the method: as §1
With G21U U45C C68U the “self-cleavage kobs at 40 uM GlcN6P” value was 1.68e-05 ± 1.6e-05 s⁻¹. For U30C C58G C68A, the “self-cleavage kobs at 40 uM GlcN6P” value was 2.4e-05 ± 2.3e-05 s⁻¹. U30G C71G was tested, and the “self-cleavage kobs at 40 uM GlcN6P” value was 2.56e-05 ± 2.2e-05 s⁻¹.

Variants of: B1
Assay: self-cleavage kobs at 10000 uM GlcN6P; higher = faster cleavage; RNA array
Settings: with glucosamine-6-phosphate
Summary of the method: as §1
In the case of G29A U54C, the “self-cleavage kobs at 10000 uM GlcN6P” value is reported as 0.00636 ± 0.0034 s⁻¹. With U30C C58G C68A the “self-cleavage kobs at 10000 uM GlcN6P” value was 2.17e-05 ± 1.9e-05 s⁻¹.

Variants of: B1
Assay: self-cleavage kobs at 2500 uM GlcN6P; higher = faster cleavage; RNA array
Settings: with glucosamine-6-phosphate
Summary of the method: as §1
With U30A A42G the “self-cleavage kobs at 2500 uM GlcN6P” value was 0.00284 ± 0.0015 s⁻¹.
